{"source": "PubChem BioAssay AID1259254 | NCATS – 2017", "test": "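Genome-wide screen for genes that prevent DNA re-replication in cancer cells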 (primary screen)", "system": "human HCT116 colorectal cancer cells", "reagent": "single siRNA against human genes", "time to read-out": "3 days", "detection": "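Imaged Hoechst DNA stain sorts each cell into a cycle phase by DNA amount; per plate, G2 fraction set to 0% for non-targeting and 100% for GMNN siRNA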", "reading the numbers": "G2 robust z-score: higher = more G2 cells, more excess DNA replication", "call rule": "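An siRNA counts as active if its G2 robust z-score lies at least 5 MADs above the screen median; here such calls match roughly 38% of GMNN control or more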", "note": "Shown is one part, drawn at random, of about 59,000 reagents. About 1,550 of them (2.6%) were called active. 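G2 share is only a proxy for re-replication; each gene was hit by three separate siRNAs, and active genes were retested.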 Reagents against one gene are numbered here. Not all columns of the deposit are shown. Reagent sequences are not shown. Not given: the amount of reagent."}
{"Target gene": "ZNRF3", "reagent no.": 1, "G2 robust z-score": 0.327, "activity call": "inactive"}
{"Target gene": "ZNRF3", "reagent no.": 2, "G2 robust z-score": -0.358, "activity call": "inactive"}
{"Target gene": "ZNRF3", "reagent no.": 3, "G2 robust z-score": 0.363, "activity call": "inactive"}
{"Target gene": "ZDHHC13", "reagent no.": 1, "G2 robust z-score": -1.07, "activity call": "inactive"}
{"Target gene": "ZDHHC13", "reagent no.": 2, "G2 robust z-score": -0.684, "activity call": "inactive"}
{"Target gene": "ZDHHC13", "reagent no.": 3, "G2 robust z-score": -0.154, "activity call": "inactive"}
{"Target gene": "OPN1MW", "reagent no.": 1, "G2 robust z-score": 0.063, "activity call": "inactive"}
{"Target gene": "OPN1MW", "reagent no.": 2, "G2 robust z-score": -0.107, "activity call": "inactive"}
{"Target gene": "OPN1MW", "reagent no.": 3, "G2 robust z-score": -1.15, "activity call": "inactive"}
{"Target gene": "EGFL6", "reagent no.": 1, "G2 robust z-score": -0.276, "activity call": "inactive"}
{"Target gene": "EGFL6", "reagent no.": 2, "G2 robust z-score": 1.34, "activity call": "inactive"}
{"Target gene": "EGFL6", "reagent no.": 3, "G2 robust z-score": -0.945, "activity call": "inactive"}
{"Target gene": "BTBD3", "reagent no.": 1, "G2 robust z-score": -1.21, "activity call": "inactive"}
{"Target gene": "BTBD3", "reagent no.": 2, "G2 robust z-score": -0.776, "activity call": "inactive"}
{"Target gene": "BTBD3", "reagent no.": 3, "G2 robust z-score": -1.24, "activity call": "inactive"}
{"Target gene": "OR1A1", "reagent no.": 1, "G2 robust z-score": -0.311, "activity call": "inactive"}
{"Target gene": "OR1A1", "reagent no.": 2, "G2 robust z-score": -0.607, "activity call": "inactive"}
{"Target gene": "OR1A1", "reagent no.": 3, "G2 robust z-score": -0.539, "activity call": "inactive"}
{"Target gene": "TFF1", "reagent no.": 1, "G2 robust z-score": 2.91, "activity call": "inactive"}
{"Target gene": "TFF1", "reagent no.": 2, "G2 robust z-score": -0.0689, "activity call": "inactive"}
{"Target gene": "TFF1", "reagent no.": 3, "G2 robust z-score": -0.202, "activity call": "inactive"}
{"Target gene": "ABCG4", "reagent no.": 1, "G2 robust z-score": 0.627, "activity call": "inactive"}
{"Target gene": "ABCG4", "reagent no.": 2, "G2 robust z-score": 3.23, "activity call": "inactive"}
{"Target gene": "ABCG4", "reagent no.": 3, "G2 robust z-score": -0.958, "activity call": "inactive"}
